Some of the results follow.
Each sequence was assayed against T1, OsSMF1 (Oryza sativa, UniProt Q6ZLB0 1-436) (assay: protein-binding microarray (RPBM); PBS, 2% BSA, 51.3 ng/ul salmon testes DNA, 50 uM zinc acetate, 200 nM TF, 25 C, 1 h; high values mean tight binding). Conditions: protein: recombinant; tags: N-terminal polyhistidine and DsRed monomer fusion (pET32a); chain copies: 2; label: CyDye5-dUTP incorporated in the synthesized complementary strand; 3' TTTTT single-stranded linker to array surface; dsDNA, one strand shown.
T1 sequence: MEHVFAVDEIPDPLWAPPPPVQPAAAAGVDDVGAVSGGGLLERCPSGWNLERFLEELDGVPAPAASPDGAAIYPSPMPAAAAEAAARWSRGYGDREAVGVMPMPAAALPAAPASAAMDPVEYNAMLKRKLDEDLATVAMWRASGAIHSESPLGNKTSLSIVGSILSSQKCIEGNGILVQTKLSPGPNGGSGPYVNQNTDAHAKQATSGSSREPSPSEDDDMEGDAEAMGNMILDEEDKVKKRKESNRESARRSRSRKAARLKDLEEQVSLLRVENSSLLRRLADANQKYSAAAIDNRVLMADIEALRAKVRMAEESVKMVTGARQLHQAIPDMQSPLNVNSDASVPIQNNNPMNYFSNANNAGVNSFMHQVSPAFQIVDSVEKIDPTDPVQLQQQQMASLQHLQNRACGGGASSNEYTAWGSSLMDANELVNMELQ
How it was run: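 An Axon 4000B scanner gave the binding signal as per-feature fluorescence intensity in arbitrary units. This followed washing of a custom Agilent array that had been incubated for 1 h at 25 °C with 200 nM protein in PBS, 2% BSA, salmon testes DNA and 50 µM zinc acetate. The proteins were transcription factors fused at the N-terminus to polyhistidine and DsRed, expressed in E. coli BL21-CodonPlus and purified on Ni–NTA.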

Row | Sequence | binding signal
1 | GTTGTGTATCTATCCTACGTGGCATACTGAGGTAACGCAACGGAGTCACCTAGTGCAG | 16500 fluorescence intensity (a.u.)
2 | CCTCTCTCTGTGTGTTTGTGTCACACTCACGCTGAGCTTGCGGAGTCACCTAGTGCAG | 3640 fluorescence intensity (a.u.)
3 | GTCTCCACCTGTCCCACGTGGACCAATCACACTCAGCCAGCGGAGTCACCTAGTGCAG | 7480 fluorescence intensity (a.u.)
4 | CAATTCCCTCTTCGTCGGGTGCATCGGCCGCCCACCAAGCCGGAGTCACCTAGTGCAG | 7430 fluorescence intensity (a.u.)
5 | TTCCATCGCTATTTATAGGAGTGATATCACACGCAGCAAACGGAGTCACCTAGTGCAG | 3340 fluorescence intensity (a.u.)
6 | CACTGGCAACGTCGAGAGCCACTGTGTCACTGGTCGCCGACGGAGTCACCTAGTGCAG | 4150 fluorescence intensity (a.u.)
7 | CGATCCACTCCAATCCAATGTGAAATCTCAGCCCACTCAACGGAGTCACCTAGTGCAG | 6510 fluorescence intensity (a.u.)
8 | CTCTTCTGGACCTGTCCGTGCGGGATGCTCAAGGCCGGCGCGGAGTCACCTAGTGCAG | 3210 fluorescence intensity (a.u.)
9 | TTTATGTAAATTTAGCTACAAGTTGCCATGTGTGCTTATCCGGAGTCACCTAGTGCAG | 3390 fluorescence intensity (a.u.)
10 | CGTGAGGTACGAGAGCGCGGCCTTCTTCGACCAGGCCACGCGGAGTCACCTAGTGCAG | 3590 fluorescence intensity (a.u.)
11 | TATATATATATATATATATATATATATATGTGTGTGTGTGCGGAGTCACCTAGTGCAG | 3520 fluorescence intensity (a.u.)
12 | ACGGTGAACCAAAGCCCACGTCATCGAACGGATACTGTTTCGGAGTCACCTAGTGCAG | 13000 fluorescence intensity (a.u.)
13 | GCATTCACCTTGCTTGACTGTAATTGAGTCATTGCTGTACCGGAGTCACCTAGTGCAG | 6490 fluorescence intensity (a.u.)
14 | TTTGTGTGTTTAGTTTCTTACGTTTATAATTTTCTGAGTTCGGAGTCACCTAGTGCAG | 3210 fluorescence intensity (a.u.)
15 | GCCCATGAGTCCGTGACGGCTTCTTCGCCACCTTCCTCCCCGGAGTCACCTAGTGCAG | 3300 fluorescence intensity (a.u.)
16 | AGAAATCAACTTCAAACCTTTATTCTCAACATCAGGAGATCGGAGTCACCTAGTGCAG | 26000 fluorescence intensity (a.u.)
17 | CTGCTTGACCATGGAGTACGTCACAGTTGCTGTCACATGACGGAGTCACCTAGTGCAG | 5360 fluorescence intensity (a.u.)
18 | CATGATACTGTAGATCAAGAAGTTGTAAAATGATAATGAACGGAGTCACCTAGTGCAG | 23600 fluorescence intensity (a.u.)
19 | AATACTGGATATCTCCGCTTCCACCTCAGTTGATGCGGCGCGGAGTCACCTAGTGCAG | 3760 fluorescence intensity (a.u.)
20 | TCGTGCCACTCCAACAACGTCCACATCACCTGCGCGCCGCCGGAGTCACCTAGTGCAG | 4980 fluorescence intensity (a.u.)
21 | TATGCAACCTTTGATATTGGTACAGTGTTCTTCGACAAAACGGAGTCACCTAGTGCAG | 36500 fluorescence intensity (a.u.)
22 | CAAATGAGTCATAAGATGAGACCCACATTCTTATGTTGTTCGGAGTCACCTAGTGCAG | 3550 fluorescence intensity (a.u.)
23 | TCCAAAACACACATGCCAATTGTCAGCACTCATTTTGCAACGGAGTCACCTAGTGCAG | 3290 fluorescence intensity (a.u.)

Part of the list above, comma-delimited.
Row,Sequence,binding signal
2,CCTCTCTCTGTGTGTTTGTGTCACACTCACGCTGAGCTTGCGGAGTCACCTAGTGCAG,3640 fluorescence intensity (a.u.)
14,TTTGTGTGTTTAGTTTCTTACGTTTATAATTTTCTGAGTTCGGAGTCACCTAGTGCAG,3210 fluorescence intensity (a.u.)
17,CTGCTTGACCATGGAGTACGTCACAGTTGCTGTCACATGACGGAGTCACCTAGTGCAG,5360 fluorescence intensity (a.u.)
19,AATACTGGATATCTCCGCTTCCACCTCAGTTGATGCGGCGCGGAGTCACCTAGTGCAG,3760 fluorescence intensity (a.u.)

From publication PMC7819943, “Rice protein-binding microarrays: a tool to detect cis-acting elements near promoter regions in rice”
